Consider three molecules from doi:10.1101/2024.01.20.576408.

Amino acid sequences for entries named in this document (tags omitted).
UniProt Q08689: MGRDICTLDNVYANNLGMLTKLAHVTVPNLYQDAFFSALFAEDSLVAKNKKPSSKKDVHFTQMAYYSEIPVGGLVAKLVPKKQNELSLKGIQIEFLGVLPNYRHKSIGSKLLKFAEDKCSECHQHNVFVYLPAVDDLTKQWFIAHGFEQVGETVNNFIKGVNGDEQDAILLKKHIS

Test [1] concerns the target Nat5, C-terminally tagged (S. cerevisiae) (UniProt Q08689). Description: selective ribosome profiling.
A further test deals with T1, Rrn7 (S. cerevisiae) (UniProt P40992).
T1 sequence: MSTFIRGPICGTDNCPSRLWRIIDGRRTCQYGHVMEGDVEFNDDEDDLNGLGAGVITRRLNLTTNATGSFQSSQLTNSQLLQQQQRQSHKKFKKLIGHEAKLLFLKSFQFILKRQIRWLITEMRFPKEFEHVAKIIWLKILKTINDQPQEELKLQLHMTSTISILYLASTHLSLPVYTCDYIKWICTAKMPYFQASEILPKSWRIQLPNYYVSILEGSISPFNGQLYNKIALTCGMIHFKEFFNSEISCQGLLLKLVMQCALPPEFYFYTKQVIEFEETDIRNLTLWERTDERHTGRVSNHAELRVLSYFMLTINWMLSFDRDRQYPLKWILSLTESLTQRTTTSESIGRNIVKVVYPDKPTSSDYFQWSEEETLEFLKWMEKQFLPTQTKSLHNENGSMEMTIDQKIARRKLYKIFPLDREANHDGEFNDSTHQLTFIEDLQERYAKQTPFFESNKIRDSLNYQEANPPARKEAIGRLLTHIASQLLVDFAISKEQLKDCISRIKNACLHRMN
The test is described as follows: RNA immunoprecipitation qPCR.

The target of test [2] is T2, Ski3, C-terminally HA-tagged (S. cerevisiae) (UniProt P17883).
T2 sequence: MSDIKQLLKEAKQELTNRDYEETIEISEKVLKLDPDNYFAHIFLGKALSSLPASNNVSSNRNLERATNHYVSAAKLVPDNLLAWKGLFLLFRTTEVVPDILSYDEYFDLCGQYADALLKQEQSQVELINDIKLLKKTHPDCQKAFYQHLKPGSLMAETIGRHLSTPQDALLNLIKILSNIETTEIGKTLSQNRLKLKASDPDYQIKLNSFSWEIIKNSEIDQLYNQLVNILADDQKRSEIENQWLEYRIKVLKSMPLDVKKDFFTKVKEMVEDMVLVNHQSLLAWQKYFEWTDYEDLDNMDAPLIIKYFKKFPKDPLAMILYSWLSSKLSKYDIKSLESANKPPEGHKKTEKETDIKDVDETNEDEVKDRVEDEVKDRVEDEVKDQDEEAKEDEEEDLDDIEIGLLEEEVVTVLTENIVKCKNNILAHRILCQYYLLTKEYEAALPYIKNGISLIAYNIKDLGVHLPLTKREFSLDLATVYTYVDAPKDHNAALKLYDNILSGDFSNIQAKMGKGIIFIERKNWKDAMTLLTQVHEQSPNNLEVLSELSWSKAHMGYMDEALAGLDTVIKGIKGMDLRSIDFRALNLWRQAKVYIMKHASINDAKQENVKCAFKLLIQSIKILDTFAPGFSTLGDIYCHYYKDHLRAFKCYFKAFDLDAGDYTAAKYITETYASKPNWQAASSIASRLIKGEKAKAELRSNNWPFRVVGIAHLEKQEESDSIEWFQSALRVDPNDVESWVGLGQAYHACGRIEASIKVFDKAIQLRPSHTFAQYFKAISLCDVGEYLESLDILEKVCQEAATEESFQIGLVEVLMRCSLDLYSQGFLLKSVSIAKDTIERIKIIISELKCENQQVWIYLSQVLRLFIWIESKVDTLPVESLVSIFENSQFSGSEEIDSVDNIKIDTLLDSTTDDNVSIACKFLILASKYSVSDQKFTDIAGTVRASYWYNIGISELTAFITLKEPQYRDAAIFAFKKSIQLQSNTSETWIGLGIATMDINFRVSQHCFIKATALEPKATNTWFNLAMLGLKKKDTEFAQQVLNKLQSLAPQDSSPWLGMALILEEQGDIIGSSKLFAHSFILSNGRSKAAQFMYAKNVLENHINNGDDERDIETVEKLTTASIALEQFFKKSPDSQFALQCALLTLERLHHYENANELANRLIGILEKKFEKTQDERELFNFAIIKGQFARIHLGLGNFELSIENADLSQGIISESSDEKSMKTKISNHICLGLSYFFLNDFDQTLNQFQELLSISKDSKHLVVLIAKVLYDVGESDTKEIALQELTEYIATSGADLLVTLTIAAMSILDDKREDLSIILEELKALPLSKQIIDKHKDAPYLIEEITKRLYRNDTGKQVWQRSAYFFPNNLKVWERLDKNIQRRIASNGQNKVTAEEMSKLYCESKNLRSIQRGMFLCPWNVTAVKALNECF
The test is described as follows: RNA immunoprecipitation qPCR.

No constants are given. Whether binding was seen depends on the method and setting. Some entries that bind do so weakly or less than the wild type. For part of these data: Tags and fused reporters may be left off the sequences shown.

B1: Nat1, nascent chain on translating ribosomes (protein, UniProt P12945 1-854)
chain: MSRKRSTKPKPAAKIALKKENDQFLEALKLYEGKQYKKSLKLLDAILKKDGSHVDSLALKGLDLYSVGEKDDAASYVANAIRKIEGASASPICCHVLGIYMRNTKEYKESIKWFTAALNNGSTNKQIYRDLATLQSQIGDFKNALVSRKKYWEAFLGYRANWTSLAVAQDVNGERQQAINTLSQFEKLAEGKISDSEKYEHSECLMYKNDIMYKAASDNQDKLQNVLKHLNDIEPCVFDKFGLLERKATIYMKLGQLKDASIVYRTLIKRNPDNFKYYKLLEVSLGIQGDNKLKKALYGKLEQFYPRCEPPKFIPLTFLQDKEELSKKLREYVLPQLERGVPATFSNVKPLYQRRKSKVSPLLEKIVLDYLSGLDPTQDPIPFIWTNYYLSQHFLFLKDFPKAQEYIDAALDHTPTLVEFYILKARILKHLGLMDTAAGILEEGRQLDLQDRFINCKTVKYFLRANNIDKAVEVASLFTKNDDSVNGIKDLHLVEASWFIVEQAEAYYRLYLDRKKKLDDLASLKKEVESDKSEQIANDIKENQWLVRKYKGLALKRFNAIPKFYKQFEDDQLDFHSYCMRKGTPRAYLEMLEWGKALYTKPMYVRAMKEASKLYFQMHDDRLKRKSDSLDENSDEIQNNGQNSSSQKKKAKKEAAAMNKRKETEAKSVAAYPSDQDNDVFGEKLIETSTPMEDFATEFYNNYSMQVREDERDYILDFEFNYRIGKLALCFASLNKFAKRFGTTSGLFGSMAIVLLHATRNDTPFDPILKKVVTKSLEKEYSENFPLNEISNNSFDWLNFYQEKFGKNDINGLLFLYRYRDDVPIGSSNLKEMIISSLSPLEPHSQNEILQYYL
Regarding B1, the binding entry in test [1] was “binds”.

B2: Rrn6 (protein, UniProt P32786 1-894)
chain: MSEGQIPSSDVLGSQLGVGVQGASLYCPQENYTTKKQEKPQWLRPVDDTLAEDALDLHIVVKSLLCDTAIRYISDDKVLQESDADDDLITSDIDEDTDNQGDTSIVVNPVIPVVPKDVHFFKKVDVGNDSMFGVNCDTPVSFQDYIPSDLLRNLDDTLQESTNSSRPMQDAFFWDPTVANRLDSQYIQTASDLRNYRDGTEIIAYASGKTGSVLNIAVLTRQNTLHLNRHNNVTSIELHSPIKSIKIPGASESIGRRSNLVGIITENSFQIFRIESVHSRSCDVMVSSSEPLYFVEIDDLQVVDFAFNPWDLQQFAIIDIKGNWSIGRIPKNFNNNNKRKLQLIDNLHGTIFDPEELSSWKRIEWFSHFQKILVFDRSKMIEIDFMNNWQTEVVQAKAWSNIRDYKRIDDKNGILLTSREIIIVGASESNDPVRRISWKHDLDPDDTTLRITVQKVKKPDHILLVAFVYSMRHKRIYMHVFSHRKANLFQSLGCSTVLEIPGGTPTGIETILTLDHIDDESRREEDADENFELVVDFLVKLRNSSEVYYYALSNTQNSEPNKQETPIIVDHPEWASLFNNADEREKESIGALVSQIKLKERERISRVQNLIEHENSHDEDKYLQDLGYRLSIATNELLESWQKTKDESILSGSLSHSKLKNLLENSDSFASIPEFSSLLDQFFQYYQDQDVTFIGFEKLLHLFLHEDVPGLDIFYNKLLQCWVLVSPQAELLTKEIVKDIIWSLARLEKPSLFEPIQNEISRSLSGPYQDIISSWDMDDINEEDESNEFNFDSQFSAPFNGRPPFNLNSQSQIPTIKSSQSSGLARRKRILKTQSQKATPLSQSTQNLSVLPDSMTPAFTLMQPPSSQISFVNDSQPRNSQKAKKKKKRIRGFG
For B2, the binding result in the test with Rrn7 (S. cerevisiae) was “binds”.

B3: Ski2, nascent chain on translating ribosomes (protein, UniProt P35207 1-1287)
chain: MSEGFSSSSIQELYQSLKEITNNADVELFEDRITKLDFESTDEPKHANDIIKDRFLRPSNALPWSLLDMVQDVPHTSSPEDCSGKLDYKELLKVPDPINRTSYQFKRTGLEGKISGYKEEVDLKEVANANASNSLSITRSINHNQNSVRGSTAQLPFTPGGIPMKSVKTDSEQNGSSTMANATKLLHKDGQGLFDIPEGMNRGIKPMDSPAENEDQNGQFKELKQLNEIDNELDIRIEANEAKLKEEEKSAKSISEEIMEEATEETTADNADDAEIDELLPIGIDFGRTKPVSKSVPVKKEWAHVVDLNHKIENFDELIPNPARSWPFELDTFQKEAVYHLEQGDSVFVAAHTSAGKTVVAEYAIAMAHRNMTKTIYTSPIKALSNQKFRDFKETFDDVNIGLITGDVQINPDANCLIMTTEILRSMLYRGADLIRDVEFVIFDEVHYVNDQDRGVVWEEVIIMLPQHVKFILLSATVPNTYEFANWIGRTKQKNIYVISTPKRPVPLEINIWAKKELIPVINQNSEFLEANFRKHKEILNGESAKGAPSKTDNGRGGSTARGGRGGSNTRDGRGGRGNSTRGGANRGGSRGAGAIGSNKRKFFTQDGPSKKTWPEIVNYLRKRELLPMVVFVFSKKRCEEYADWLEGINFCNNKEKSQIHMFIEKSITRLKKEDRDLPQILKTRSLLERGIAVHHGGLLPIVKELIEILFSKGFIKVLFATETFAMGLNLPTRTVIFSSIRKHDGNGLRELTPGEFTQMAGRAGRRGLDSTGTVIVMAYNSPLSIATFKEVTMGVPTRLQSQFRLTYNMILNLLRIEALRVEEMIKYSFSENAKETLQPEHEKQIKVLQEELQTIEYKSCEICDNDIEKFLELMLAYKEATVNLMQEMVKSPSILHILKEGRLVAFRDPNDCLKLGFVFKVSLKDAVCVIMTFTKPYKLPNGEPNHLIYFPKADGYRRRNFPKFQKTDFYMEEVPVTAIEVITKRKFAAPLGKVIKKDVAALNEFNAETNNILDGKTLKEAINIEKQGLKIHQILLDRTNIRDEIFKLKSIKCPNLSQHIVPKFKAHVIKKKIEELYHLMSDQNLSLLPDYEKRLAVLKDTEFIDQNHNVLLKGRVACEINSGYELVLTELILDNFLGSFEPEEIVALLSVFVYEGKTREEEPPIVTPRLAKGKQRIEEIYKKMLCVFNTHQIPLTQDEAEFLDRKRFAMMNVVYEWARGLSFKEIMEMSPEAEGTVVRVITWLDEICREVKTASIIIGNSTLHMKMSRAQELIKRDIVFAASLYL
As for B3, the binding result in test [2] is reported as “binds”.
